PubChem BioAssay AID1259308 | NCATS – 2017
Shown is an unselected part of about 59,000 deposited reagents. Of all reagents, about 1,510 (2.6%) were called active. 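Calls use total luciferase alone and ignore viability, so some active siRNAs may act by altering cell number.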 Entries without a mark were called inactive. Reagents against one gene are numbered here. Further read-outs or replicates are left out here.

Screen: 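Genes whose loss raises luciferase production in HEK293 cells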 (primary screen)
Cells: human HEK293 embryonic kidney cells stably expressing firefly luciferase (HEK-CMV-Luc2-Hygro)
Reagents: single siRNA against human genes, 0.8 pmol siRNA per well
Timing: 72 h
Detection: 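Reporter luminescence and viable-cell signal on separate replicate plates, given as percent of non-targeting control and median/MAD z-scores, plus per-cell luciferase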
Direction: total luciferase, z-score: higher = more reporter protein produced
Active means: 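Active when the median/MAD z-score for overall luciferase is greater than 3; a gene was taken forward for validation with new siRNAs if at least two of its three siRNAs passed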
Meaning of the calls: active = raised luciferase; inactive = no rise

total luciferase, z-score, by gene and reagent
IL33R: #1 0.388; #2 -0.176; #3 -0.986
ZNF669: #1 -0.294; #2 0.133; #3 1.81
ESPNP: #1 1.81; #2 -0.449; #3 -3.54

Ordered by “total luciferase, z-score” (ascending): some entries from above
gene	reagent no.	total luciferase, z-score
ZNF669	1	-0.294
ZNF669	2	0.133
ZNF669	3	1.81

The list goes on:
total luciferase, z-score, by gene and reagent
LOC643496 (retired record): #1 0.0999; #2 0.377; #3 -0.308
FGF8: #1 3.24 (active); #2 0.732; #3 -0.276
PCDHB15: #1 1.16; #2 -1.02; #3 -0.632
PCLO: #1 -1.78; #2 0.122; #3 -0.302
AZU1: #1 1.03; #2 0.67; #3 -0.816
